Source: PubChem BioAssay AID493014 (National Center for Advancing Translational Sciences (NCATS), 2011)
The list shows a part of the results. The main result of the screen is listed elsewhere. These columns were measured beside it and carry no call. Compounds called inactive in the main read-out are mostly missing here. Potencies come from curve fits of mixed quality, noted in brackets.

Assay: qHTS Assay to Find Inhibitors of Chronic Active B-Cell Receptor Signaling
Details: ABC-DLBCL IkBa-CBG/CBR reporter, luminescence ratio (green luciferase fused to IkBa over red control in TMD8 lymphoma cells), 4 h
Summary of the method: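 TMD8 human ABC-DLBCL cells with doxycycline-inducible IκBα–green luciferase fusion and unfused red luciferase, in 0.5% FBS medium; compounds up to 46 uM, 4 h at 37C. Green/red luminescence ratio, filter-overlap corrected, fitted to concentration-response curves.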

[1] = measured here: CBR red luminescence, cell number
[2] = measured here: IkBa-CBG green luminescence

## COc1ccc(CCNC(=O)C2CCCN(S(=O)(=O)c3cnc[nH]3)C2)cc1OC (stereo not drawn)
[1]
  AC50: 3.26 µM [rising, partial curve, poor fit]

## Cc1ccc(C2=Nc3ccccc3N(C(=O)c3ccccc3)C(C)C2)cc1 (stereo not drawn)
[1]
  AC50: 25.9 µM [falling, single point]

## O=C(Nc1nc2c(ccc3ccccc32)s1)c1ccco1
[1]
  AC50: 6.31 µM [falling, partial curve, poor fit]

## Clc1ccc(-c2nnc(Sc3nc4ccccc4o3)c3ccccc23)cc1
[1]
  AC50: 8.91 µM [rising, partial curve]

## Cc1cccc(C)c1N(CC(O)Cn1c2ccccc2c2ccccc21)S(C)(=O)=O (stereo not drawn)
[1]
  AC50: 16.4 µM [falling, single point]

## CC1CCCN(C(=O)c2ccc(OC3CCN(CCc4ccccc4)CC3)cc2)C1 (stereo not drawn)
[1]
  AC50: 35.5 µM [falling, partial curve, poor fit]

## COc1cc(CNC(C)(C)CO)cc(Br)c1OCc1ccccc1
[1]
  AC50: 35.5 µM [falling, single point]

## CCc1nc(N=Nc2c(O)[nH]c3ccccc23)c2c3c(sc2n1)CCC3
[1]
  AC50: 0.0146 µM [rising, full curve]

## Cc1nnc(SCC(=O)Nc2cc(C(C)(C)C)nn2-c2ccccc2)s1
[1]
  AC50: 5.17 µM [rising, single point]

## N#Cc1c(Cl)nsc1NN
[1]
  AC50: 35.5 µM [falling, single point]

## Cc1ccc(-c2ccc(/C=N/N3C(=O)C4C5C=CC(CC5)C4C3=O)o2)c([N+](=O)[O-])c1 (stereo not drawn)
[1]
  AC50: 10.3 µM [rising, partial curve, poor fit]

## CCOC(=O)CC1C(=O)NCCN1S(=O)(=O)c1cccc(C(F)(F)F)c1 (stereo not drawn)
[1]
  AC50: 0.891 µM [rising, full curve, poor fit]

## CCc1nnc(NC(=O)c2cccc(C(=O)Nc3nnc(CC)s3)n2)s1
[1]
  AC50: 6.51 µM [falling, single point]

## CC1(CC(=O)N/N=C/c2ccc(-c3ccc(C(=O)O)cc3)o2)OCCO1
[1]
  AC50: 22.4 µM [falling, single point]

## CCN1CCC(=NNC(=O)c2ccco2)CC1
[1]
  AC50: 23.1 µM [falling, single point]

## Cc1ccc(S(=O)(=O)Nc2c3ccccc3nc(=O)n2-c2ccccc2)cc1
[1]
  AC50: 7.31 µM [rising, partial curve]

## O=C(CN(c1ccccc1)S(=O)(=O)c1ccccc1)N/N=C/c1ccc(OC2CSC2)cc1
[1]
  AC50: 7.31 µM [falling, partial curve, poor fit]

## CC1CC(C)CN(C(=O)CSc2nc(Cc3cccs3)nc3ccccc23)C1 (stereo not drawn)
[1]
  AC50: 7.31 µM [falling, partial curve]

## O=C(Nc1ncc([N+](=O)[O-])s1)c1cccc([N+](=O)[O-])c1
[1]
  AC50: 0.316 µM [falling, full curve]

## CCC(C)Nc1nc(C)nc2c1oc1ccccc12 (stereo not drawn)
[1]
  AC50: 1 µM [falling, full curve, poor fit]

## CN1CCN(c2nc3c(c(=O)[nH]c(=O)n3C)n2CCOc2ccccc2)CC1
[1]
  AC50: 25.9 µM [rising, single point]

## CCCc1cc(C(=O)Nc2sc(C)c(CC)c2C#N)no1
[1]
  AC50: 3.66 µM [rising, partial curve]

## Cc1ccnc(NC(=O)CCCOc2ccc(Cl)cc2C)c1
[1]
  AC50: 0.708 µM [rising, full curve, poor fit]

## Cc1ccc(/C=N/Nc2nncc(-c3ccccc3)n2)o1
[1]
  AC50: 17.8 µM [falling, single point]

## O=C(CN(c1cccc(Cl)c1)S(=O)(=O)c1ccc(Cl)cc1)N1CCc2ccccc2C1
[1]
  AC50: 29.1 µM [falling, single point]

## CCOC(=O)CC(=O)Nc1ccc(C(=O)OCC)cc1
[1]
  AC50: 1.3 µM [falling, full curve]

## Cc1ccc(S(=O)(=O)N2CCCN(S(=O)(=O)c3ccc(C)c(C)c3)CC2)cc1C
[1]
  AC50: 23.1 µM [falling, partial curve]

## COc1ccc(-c2nnc3ccc(SCC(=O)Nc4nccs4)nn23)cc1OC
[1]
  AC50: 6.51 µM [falling, single point]

## CCCNC(=O)c1nnsc1S(=O)c1ccc(Cl)cc1 (stereo not drawn)
[1]
  AC50: 2.82 µM [falling, partial curve, poor fit]
[2]
  AC50: 3.98 µM [rising, full curve]

## N#CC(C#N)=C1C=CC=CN1/C(=C\c1ccco1)C(=O)c1ccc(Br)cc1
[1]
  AC50: 2.59 µM [falling, full curve]

## COc1ccccc1C1c2[nH]c3ccccc3c2C[C@H]2C(=O)N(C3CCN(Cc4ccccc4)CC3)CC(=O)N12 (stereo partly drawn)
[1]
  AC50: 10 µM [falling, partial curve, poor fit]

## Cc1ccccc1-n1nnc2c(=O)oc3ccccc3c21
[1]
  AC50: 29.1 µM [falling, single point]

## COC(=O)C1=C(C)N(Cc2ccccc2)C(=NCCc2c[nH]c3ccccc23)N[C@H]1c1ccccc1
[1]
  AC50: 35.5 µM [falling, single point]

## COc1ccccc1Nc1ccc([N+](=O)[O-])cn1
[1]
  AC50: 12.6 µM [falling, single point]

## COc1ccccc1NC(=O)C(=O)N1CCCC1
[1]
  AC50: 35.5 µM [falling, partial curve, poor fit]

## O=C(O)CC1=C(Nc2ccccc2)C(=O)N(c2ccccc2)C1c1ccc(Br)cc1 (stereo not drawn)
[1]
  AC50: 12.6 µM [falling, partial curve, poor fit]

## Cc1cccc(C)c1OCc1cc(C(=O)N(C)Cc2cc(C3CC3)n[nH]2)no1
[1]
  AC50: 35.5 µM [falling, single point]

## Cc1cc(C)cc(OCC(O)CN2CC(C)OC(C)C2)c1 (stereo not drawn)
[1]
  AC50: 2.82 µM [rising, full curve]

## O=C(Nc1cc(Cl)ccc1Cl)C1(c2cccs2)CCOCC1
[1]
  AC50: 15.8 µM [rising, partial curve, poor fit]

## CCc1ccc(NC(=O)C2CCCN(S(=O)(=O)c3cnc[nH]3)C2)cc1 (stereo not drawn)
[1]
  AC50: 14.1 µM [falling, partial curve]

## O=C(NN=C1c2ccccc2-c2ccccc21)c1cccc(Br)c1
[1]
  AC50: 0.517 µM [rising, full curve, poor fit]

## O=C(O)c1cc(O)c2c(c1)C(=O)c1cccc(O)c1C2=O
[1]
  AC50: 1.84 µM [falling, full curve]
[2]
  AC50: 16.4 µM [rising, single point]

## O=C1C=CC(=O)N1c1ccc(OC(F)F)cc1
[1]
  AC50: 11.6 µM [falling, partial curve]
[2]
  AC50: 23.1 µM [rising, partial curve, poor fit]

## CC(=O)Nc1cccc(NC(=O)Nc2ccc(C)c(Cl)c2)c1
[1]
  AC50: 8.91 µM [falling, partial curve, poor fit]

## COc1ccc(C2=NC(c3ccccc3)CO2)cc1 (stereo not drawn)
[1]
  AC50: 0.651 µM [falling, full curve]

## CC(NC(=O)c1ccccc1Cl)C(=O)NCc1cccs1 (stereo not drawn)
[1]
  AC50: 0.82 µM [falling, full curve]

## CC(O)/C=C/c1ccc2ccccc2n1 (stereo not drawn)
[1]
  AC50: 0.731 µM [falling, full curve, poor fit]

## COC(=O)c1[nH]c2cccc(OC)c2c1NC(=O)CN1CC(C)OC(C)C1 (stereo not drawn)
[1]
  AC50: 9.2 µM [rising, partial curve, poor fit]

## CC(C)c1cccc(C2=CC(=O)C[C@H](c3ccc(F)cc3)C2)c1
[1]
  AC50: 2.06 µM [rising, partial curve, poor fit]

## COc1ccc(-c2nc3ccc(C)cn3c2NCc2ccccc2)cc1SC1CCCCC1
[1]
  AC50: 20.6 µM [rising, single point]

## Cc1nnc(SCC(=O)Nc2ccc(N3CCOCC3)cc2)o1
[1]
  AC50: 32.6 µM [rising, single point]

## O=C(OCc1ccccc1)c1ccc2c(c1)-c1ccccc1C2=O
[1]
  AC50: 0.366 µM [falling, full curve]

## N#Cc1cnc2cc(-c3ccccc3)nn2c1N
[2]
  AC50: 0.891 µM [rising, full curve, poor fit]

## O=C(O)CCN1C(=O)c2ccc(NC(=O)CSCc3ccccc3)cc2C1=O
[1]
  AC50: 4.11 µM [rising, full curve, poor fit]

## Fc1ccc(-c2csc(-c3ccccn3)n2)cc1F
[1]
  AC50: 11.2 µM [rising, single point]

## Cc1ccc(-c2c3c(nc4sc(C(N)=O)c(N)c24)CCCC3)o1
[1]
  AC50: 20.6 µM [falling, single point]

## CN(C)c1cccc(C(=O)OC(C(=O)Nc2ccc([N+](=O)[O-])cc2Br)c2ccccc2)c1 (stereo not drawn)
[1]
  AC50: 29.1 µM [rising, single point]

## Cc1cc(C)nc(N/N=C2/CCSc3ccc(F)cc32)n1
[1]
  AC50: 35.5 µM [falling, single point]

## Cc1ccsc1C(=O)Nc1cc(C(C)(C)C)nn1-c1ccccc1
[1]
  AC50: 4.11 µM [falling, full curve, poor fit]

## COc1cc2nc(=S)n3[nH]c(CCn4nc(C)cc4C)nc3c2cc1OC
[2]
  AC50: 0.517 µM [falling, partial curve, poor fit]

## COc1cccc(NC(=O)c2ncn[nH]2)c1
[1]
  AC50: 5.8 µM [falling, partial curve]

## Cc1cccc(C=Nc2ccc3c4c(cccc24)CC3)c1O
[2]
  AC50: 20.6 µM [falling, partial curve, poor fit]

## CSc1nc2ccsc2c(=O)n1-c1ccccc1
[1]
  AC50: 12.6 µM [rising, single point]

## O=C(NCc1cccnc1)c1cc(-c2ccccc2)on1
[1]
  AC50: 18.4 µM [falling, single point]

## O=C1COc2ccc(C(=O)COC(=O)c3ccccc3Cl)cc2N1
[1]
  AC50: 9.2 µM [rising, partial curve]
